Data as given in PubChem BioAssay (Tox21).
Values joined by “and” are separate entries in the source; they are usually repeats but may differ in a detail not shown here. Equal entries are not always repeated. The inconclusive results got no clear call from the source; some entries with a clear call stand among them for comparison. For some assays here: Potencies of inconclusive entries are doubtful fits and often do not repeat. Active and inactive are the calls of the source. Unless noted, the call rests on the fitted dose curve.

The chains behind the UniProt entries cited, without tags or fusion partners. Where a name states a change or a piece, a line headed by the entry shows the natural chain unless it says otherwise.
UniProt P14416, whole entry, looked up: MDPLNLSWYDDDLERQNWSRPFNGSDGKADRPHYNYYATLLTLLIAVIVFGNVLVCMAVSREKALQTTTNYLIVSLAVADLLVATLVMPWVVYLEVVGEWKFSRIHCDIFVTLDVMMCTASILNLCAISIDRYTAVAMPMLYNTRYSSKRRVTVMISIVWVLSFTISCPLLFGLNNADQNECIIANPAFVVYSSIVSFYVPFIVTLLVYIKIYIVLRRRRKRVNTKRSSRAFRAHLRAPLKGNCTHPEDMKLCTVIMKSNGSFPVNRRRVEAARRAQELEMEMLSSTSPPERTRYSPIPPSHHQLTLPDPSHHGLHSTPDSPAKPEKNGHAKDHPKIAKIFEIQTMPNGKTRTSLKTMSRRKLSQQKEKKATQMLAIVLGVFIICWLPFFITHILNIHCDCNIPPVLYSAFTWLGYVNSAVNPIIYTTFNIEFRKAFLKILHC
UniProt P28223, whole entry, looked up: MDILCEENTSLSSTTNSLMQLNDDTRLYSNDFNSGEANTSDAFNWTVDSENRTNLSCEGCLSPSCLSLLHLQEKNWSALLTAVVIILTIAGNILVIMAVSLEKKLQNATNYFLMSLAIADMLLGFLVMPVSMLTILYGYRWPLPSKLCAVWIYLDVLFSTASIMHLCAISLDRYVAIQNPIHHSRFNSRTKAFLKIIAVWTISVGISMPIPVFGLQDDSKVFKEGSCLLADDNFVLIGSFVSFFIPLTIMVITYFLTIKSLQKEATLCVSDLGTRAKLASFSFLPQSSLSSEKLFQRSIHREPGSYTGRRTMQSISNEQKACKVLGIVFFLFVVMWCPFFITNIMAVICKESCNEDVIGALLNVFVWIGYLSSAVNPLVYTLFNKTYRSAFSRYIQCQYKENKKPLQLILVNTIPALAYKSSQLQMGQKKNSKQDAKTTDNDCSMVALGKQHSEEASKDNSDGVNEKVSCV
UniProt P11229: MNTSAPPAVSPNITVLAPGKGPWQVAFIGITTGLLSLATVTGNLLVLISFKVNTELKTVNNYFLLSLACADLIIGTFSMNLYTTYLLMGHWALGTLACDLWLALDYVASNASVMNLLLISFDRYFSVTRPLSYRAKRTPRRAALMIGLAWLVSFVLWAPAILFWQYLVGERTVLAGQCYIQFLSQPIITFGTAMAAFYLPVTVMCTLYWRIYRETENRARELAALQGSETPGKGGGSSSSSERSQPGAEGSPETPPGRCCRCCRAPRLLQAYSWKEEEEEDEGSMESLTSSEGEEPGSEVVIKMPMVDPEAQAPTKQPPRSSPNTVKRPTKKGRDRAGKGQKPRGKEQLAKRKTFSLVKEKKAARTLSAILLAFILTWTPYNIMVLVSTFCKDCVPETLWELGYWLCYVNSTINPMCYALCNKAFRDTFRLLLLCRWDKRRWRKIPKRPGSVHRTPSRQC

What was measured:
[1] = p53 small molecule agonists, cell-based qHTS assay with human liver microsomes (AID 1963577); details: HCT-116 p53RE-bla with human liver microsomes, ratio, 16 h; activation: at 66 µM (top of the series) unless noted; further: potency means the concentration at half of the fitted maximal effect;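 on activation: p53 response element beta-lactamase reporter cells with liver microsomes plus NADPH; on the % scale 0 is the no-effect control and ±100 the full control effect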
Summary of the method: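 Compounds act here after metabolic activation: human liver microsomes and NADPH, both at 0.5 mg/mL final, were co-added to p53RE-bla cells. Incubation ran 16 h at 37 C, followed by LiveBLAzer detection.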

[2] = p53 small molecule agonists, cell-based qHTS assay: qHTS cell viability counter screen (AID 1963581); further: nearly all actives have a fitted effect of over 45% in size; further: potency means the concentration at half of the fitted maximal effect
Summary of the method: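 Multiplexed with the reporter read, a CellTiter-Glo step (30 min, room temperature) gauges ATP-based viability of HCT-116 p53RE-bla cells after 16 h compound incubation at 37 C.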

[3] = cAMP Responsive Elements (CRE) small molecule agonists, cell-based qHTS assay (AID 1963590); details: CRE-bla HEK293T, beta-lactamase FRET ratio, 3 h; activation: at 92.4 µM (top of the series) unless noted; further: potency means the concentration at half of the fitted maximal effect; on activation: on the % scale 0 is the no-effect control and ±100 the full control effect
Summary of the method: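 Quantitative HTS for CRE agonists: HEK 293T CRE-bla cells, overnight plating, 3 h compound incubation at 37 C/5% CO2, then 2 h room-temperature LiveBLAzer B/G FRET substrate loading.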

[4] = molecular target: Beta-2 adrenergic receptor (Homo sapiens) (UniProt P07550); assay: Adrenergic beta2 receptor (ADRB2) small molecule antagonists, cell-based qHTS assay (AID 1963592); details: CHO-ADRB2 cells, isoproterenol-stimulated cAMP HTRF ratio, 0.5 h; activity change, negative = inhibition: at 92.4 µM (top of the series) unless noted; further: on the % scale 0 is the no-effect control and ±100 the full control effect; nearly all actives have a fitted effect of over 50% in size
Summary of the method: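 Assay format: CHO-ADRB2 cells, 18-20hr seeding at 37C/5% CO2, then compound plus 1nM isoproterenol agonist mix for 0.5hr RT. Homogeneous time-resolved fluorescence cAMP detection after 1hr, expressed as 665/615 nm ratio.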

[5] = cAMP Responsive Elements (CRE) small molecule antagonists, cell-based qHTS assay (AID 1963591; active means well fitted inhibition curve with a large enough effect in the signal ratio in the repeat runs, not every such curve was filed as active; inconclusive means weak or mixed curves, or effect the other way; the % refers to the signal ratio; further: potency means the concentration at half of the fitted maximal effect; on activity change, negative = inhibition: on the % scale 0 is the no-effect control and ±100 the full control effect); details: CRE-bla HEK293T, beta-lactamase FRET ratio; activity change, negative = inhibition: at 92.4 µM (top of the series) unless noted
Summary of the method: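 Fluorescence intensity from cleaved LiveBLAzer B/G substrate (2 h, room temperature) quantified CRE-bla activity in HEK 293T cells exposed 3 h to compound with 0.25 uM final NKH477.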

[6] = molecular target: Beta-2 adrenergic receptor (Homo sapiens) (UniProt P07550); assay: Adrenergic beta2 receptor (ADRB2) small molecule agonists, cell-based qHTS assay (AID 1963593); details: CHO-ADRB2 cells, cAMP HTRF, 30 min; activation: at 92.4 µM (top of the series) unless noted; further: potency means the concentration at half of the fitted maximal effect;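 on activation: CHO cells stably overexpressing human ADRB2; on the % scale 0 is the no-effect control and ±100 the full control effect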
Summary of the method: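 CHO cells stably over-expressing ADRB2 were plated overnight at 37C, then dosed with compounds plus a stimulation mix containing 100uM IBMX and 25uM Ro-20-1724 for 0.5hr at room temperature. cAMP was measured by HTRF competition, 1hr.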

[7] = molecular target: D(2) dopamine receptor (Homo sapiens) (UniProt P14416); assay: Dopamine D2 receptor (DRD2) small molecule agonists, cell-based qHTS assay (AID 1963594); details: HEK293-DRD2 cAMP HTRF, agonist mode, 30 min; activation: at 92.4 µM (top of the series) unless noted; further: nearly all actives have a fitted effect of over 35% in size; further: potency means the concentration at half of the fitted maximal effect
Summary of the method: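 HEK293 cells stably expressing DRD2 were cultured 24 h at 37 C, then given Ro20-1724 (0.1 mM final) and compounds for 10 min at room temperature. NKH477 (200nM) was then added for 30 min. cAMP was read by HTRF.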

[8] = p53 small molecule agonists, cell-based qHTS assay (AID 1963582; active means well fitted activation curve with a large enough effect in the signal ratio in the repeat runs, not every such curve was filed as active; inconclusive means weak or mixed curves; the % refers to the signal ratio; further: potency means the concentration at half of the fitted maximal effect); details: HCT-116 p53RE-bla reporter, beta-lactamase FRET ratio, 16 h; activation: at 66 µM (top of the series) unless noted
Summary of the method: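 Beta-lactamase reporter cells (p53RE-bla) treated with compounds for 16 h at 37 C; FRET substrate, 2 h, room temperature; fluorescence intensity.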

[9] = molecular target: 5-hydroxytryptamine receptor 2A (Homo sapiens) (UniProt P28223); assay: 5-hydroxytryptamine receptor 2A (HTR2A) small molecule antagonists, cell-based qHTS assay (AID 1963586); further: nearly all actives have a fitted effect of over 45% in size; further: potency means the concentration at half of the fitted maximal effect
Summary of the method: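 CHO cells stably expressing human HTR2A were plated for 18 h at 37 C, then loaded with calcium dye for 1 h. Compounds were preincubated 5 min at room temperature before DOI (4 nM solution) was added. Kinetic fluorescence was read for 3 min.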

[10] = molecular target: 5-hydroxytryptamine receptor 2A (Homo sapiens) (UniProt P28223); assay: 5-hydroxytryptamine receptor 2A (HTR2A) small molecule agonists, cell-based qHTS assay (AID 1963587); further: on the % scale 0 is the no-effect control and ±100 the full control effect; nearly all actives have a fitted effect of over 30% in size
Summary of the method: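 HTR2A-CHO cells, plated 18 h at 37 C/5% CO2, dye-loaded 1 h at 37 C; compounds in DMSO added by pin tool (agonist mode). Intracellular calcium flux read as kinetic fluorescence on FDSS over 2 min at 1 s intervals.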

[11] = molecular target: D(2) dopamine receptor (Homo sapiens) (UniProt P14416); assay: Dopamine D2 receptor (DRD2) small molecule antagonists, cell-based qHTS assay (AID 1963595; active means well fitted inhibition curve with a large enough effect in the signal ratio in the repeat runs, with a control signal flat; inconclusive means weak or mixed curves, or effect the other way; the % refers to the signal ratio; further: potency means the concentration at half of the fitted maximal effect); details: HEK293-DRD2 cAMP HTRF antagonist mode; activity change, negative = inhibition: at 92.4 µM (top of the series) unless noted
Summary of the method: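 In this cell-based antagonist screen, compounds act for 10 min at room temperature before a 30 min challenge with 12 nM quinpirole and 200 nM NKH477. cAMP is quantified by HTRF competition in DRD2-HEK293 cells containing 0.1 mM Ro20-1724.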

[12] = molecular target: Muscarinic acetylcholine receptor M1 (Homo sapiens) (UniProt P11229); assay: Cholinergic receptor muscarinic 1 (CHRM1) small molecule antagonists, cell-based qHTS assay (AID 1963588); further: potency means the concentration at half of the fitted maximal effect; nearly all actives have a fitted effect of over 40% in size
Summary of the method: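 Compounds were tested at 15 concentrations in three independent runs. Dye-loaded CHRM1-CHO cells were exposed 5 min at room temperature before stimulation by acetylcholine added at 50nM. Intracellular calcium was read kinetically on FDSS for 3 min.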

NC(=S)N/N=C/c1cccnc1
Potency [1]: inactive
Potency [2]: inactive
Potency [3]: inactive
Potency [4]: inactive

COC(=O)c1cc(Cl)ccc1[N+](=O)[O-]
Potency [1]: inconclusive: 40.8 µM [fluorescent, single point]
Potency [2]: inactive
activity change, negative = inhibition [5]: inconclusive: 17.6%
activation [6]: inconclusive: -22.2%
Potency [7]: inactive

COc1ccc(/C=C/c2cc(OC)cc(=O)o2)cc1
Potency [1]: inconclusive: 16.6 µM [rising, partial curve, poor fit]
Potency [2]: inconclusive: 8.33 µM [rising, partial curve]
activation [8]: inconclusive: 17.4% [at 30.3 µM]
Potency [9]: active: 9.64 µM
Potency [3]: inconclusive: 12.5 µM

CCOC(=O)c1ccc(N)cc1
Potency [1]: inconclusive: 36.3 µM [fluorescent, partial curve]
Potency [2]: inconclusive: 45.8 µM [rising, single point]

CCc1nn(C2CCCCC2)c2cc(C3(C#N)CCC(C(=O)O)CC3)ccc12 (stereo unspecified)
Potency [1]: inactive
Potency [2]: inconclusive: 16.2 µM [rising, partial curve, poor fit]
Potency [8]: inconclusive: 6.46 µM [fluorescent, full curve]
Potency [3]: inconclusive: 68.6 µM [fluorescent]
activity change, negative = inhibition [5]: inconclusive: -6.82%
activation [6]: inconclusive: -6.75%

CC[C@H]1O[C@]2(CC[C@@H]1C)C[C@@H]1C[C@@H](C/C=C(\C)C[C@@H](C)/C=C/C=C3\CO[C@@H]4[C@H](O)C(C)=C[C@@H](C(=O)O1)[C@]34O)O2
Potency [1]: inconclusive: 11.4 µM [rising, full curve]
Potency [8]: inconclusive: 28.6 µM [falling, partial curve]
Potency [10]: inactive
activation [3]: inconclusive: -12.8%
Potency [5]: inconclusive: 30.4 µM [full curve]
Potency [6]: inconclusive: 2.41 µM [inhibitor, single point]
Potency [11]: active: 48.1 µM

CN(C)CCOC(C)(c1ccccc1)c1ccccn1 (stereo unspecified)
Potency [1]: inactive
Potency [8]: inactive
Potency [12]: inconclusive: 6.68 µM [inhibitor, full curve, poor fit] and active: 18.8 µM and active: 4.1 µM
Potency [3]: inactive
Potency [6]: inconclusive: 545 nM [inhibitor, partial curve, poor fit] and inconclusive: 7.5 µM [inhibitor, single point]

COC(=O)CSc1cc(N=c2sc(=O)n3n2CCCC3)c(F)cc1Cl
Potency [1]: inconclusive: 51.3 µM [fluorescent]
Potency [8]: inconclusive: 25.7 µM [rising, partial curve]
Potency [3]: inconclusive: 61.1 µM [fluorescent]
Potency [5]: inconclusive: 61.1 µM [fluorescent, partial curve]
activation [6]: inconclusive: -0.557%
Potency [7]: inconclusive: 61.1 µM [rising, partial curve, poor fit]

Clc1ccc2cc3ccccc3cc2c1
Potency [1]: inconclusive: 51.3 µM [activator, single point]
Potency [8]: active: 40.7 µM
Potency [9]: inactive
Potency [3]: inconclusive: 34.3 µM [fluorescent, partial curve]
Potency [5]: inconclusive: 27.3 µM [activator, single point]
activation [6]: inconclusive: 4.23%
Potency [7]: inactive

C/C(=N\O)c1ccc(OCC(=O)N2CCCCC2)cc1
Potency [1]: inactive
Potency [8]: inconclusive: 0.5 µM [falling, single point]
Potency [6]: inactive

CCCCCOc1ccc(C2SC(=O)NC2=O)cc1OCC (stereo unspecified)
Potency [1]: inactive
Potency [8]: inconclusive: 19.9 µM [rising, single point]
Potency [3]: inconclusive: 21.1 µM [rising, partial curve]
Potency [5]: inconclusive: 13.3 µM [fluorescent]

Brc1cc(Br)cc(Br)c1
Potency [1]: inactive
Potency [8]: inactive
activation [6]: inconclusive: 11.3%

OCCCS
activation [1]: inconclusive: 0.272%
Potency [8]: inactive
Potency [9]: inactive
Potency [6]: inactive
activity change, negative = inhibition [11]: inconclusive: -7.02%

CCCCCOC(=O)Nc1nc(=O)n([C@@H]2O[C@H](C)[C@@H](O)[C@H]2O)cc1F
Potency [1]: inconclusive: 0.199 µM [rising, single point]
Potency [8]: inconclusive: 12.6 µM [activator, single point]
Potency [6]: inactive

CCc1cc(C2=C(C(=O)O)N(c3ccccc3C(F)(F)F)S(=O)(=O)c3ccccc32)cc2c1OCO2
Potency [1]: inconclusive: 40.3 µM [rising, partial curve]
Potency [8]: inconclusive: 11.4 µM [rising, full curve]
Potency [3]: inconclusive: 60.4 µM [rising, partial curve]
activity change, negative = inhibition [5]: inconclusive: 18%
activation [6]: inconclusive: 7.76%
Potency [7]: inconclusive: 27 µM [falling, partial curve, poor fit]
